Reference: the supplement of paper PMC11546906
Structures can show the parent of a compound that is named as a salt. The list shows a part of the results. Single values are uncertain here, since repeats match poorly.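 A screen tested FDA-approved drugs combined with one-eighth-MIC colistin against a clinical mcr-1-positive, multidrug-resistant E. coli isolate, measuring OD600 at 24 h. Controls were untreated bacteria (growth) and broth alone (blank). An OD600 under 0.2 marked a combination as active.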

Tested on: Escherichia coli 42 (mcr-1-positive clinical isolate)
Experiment: OD600 after 24 h growth with compound plus colistin (absorbance units (OD600)); higher = more bacterial growth (less inhibition)
Details: first compound 25 µM; colistin concentration 0.5 ug/mL; incubation time 24 h; 37 °C

SMILES | OD600
CCn1cc(C(=O)O)c(=O)c2cc(F)c(N3CCNCC3)cc21 [Norfloxacin] + CCC(C)CCCC(=O)N[C@@H](CCN)C(=O)N[C@H](C(=O)N[C@@H](CCN)C(=O)N[C@H]1CCNC(=O)[C@H]([C@@H](C)O)NC(=O)[C@H](CCN)NC(=O)[C@H](CCN)NC(=O)[C@H](CC(C)C)NC(=O)[C@@H](CC(C)C)NC(=O)[C@H](CCN)NC1=O)[C@@H](C)O [colistin] | inactive: 0.865
CC(=O)O[C@H]1CC[C@@]2(C)C(=CC[C@@H]3[C@@H]2CC[C@]2(C)C(c4cccnc4)=CC[C@@H]32)C1 [Abiraterone Acetate] + CCC(C)CCCC(=O)N[C@@H](CCN)C(=O)N[C@H](C(=O)N[C@@H](CCN)C(=O)N[C@H]1CCNC(=O)[C@H]([C@@H](C)O)NC(=O)[C@H](CCN)NC(=O)[C@H](CCN)NC(=O)[C@H](CC(C)C)NC(=O)[C@@H](CC(C)C)NC(=O)[C@H](CCN)NC1=O)[C@@H](C)O [colistin] | inactive: 0.924
CCC1(C)CC(=O)NC1=O (configuration not stated) [Ethosuximide] + CCC(C)CCCC(=O)N[C@@H](CCN)C(=O)N[C@H](C(=O)N[C@@H](CCN)C(=O)N[C@H]1CCNC(=O)[C@H]([C@@H](C)O)NC(=O)[C@H](CCN)NC(=O)[C@H](CCN)NC(=O)[C@H](CC(C)C)NC(=O)[C@@H](CC(C)C)NC(=O)[C@H](CCN)NC1=O)[C@@H](C)O [colistin] | inactive: 0.961
COc1c(N2CCNC(C)C2)c(F)cc2c(=O)c(C(=O)O)cn(C3CC3)c12 (configuration not stated) [Gatifloxacin] + CCC(C)CCCC(=O)N[C@@H](CCN)C(=O)N[C@H](C(=O)N[C@@H](CCN)C(=O)N[C@H]1CCNC(=O)[C@H]([C@@H](C)O)NC(=O)[C@H](CCN)NC(=O)[C@H](CCN)NC(=O)[C@H](CC(C)C)NC(=O)[C@@H](CC(C)C)NC(=O)[C@H](CCN)NC1=O)[C@@H](C)O [colistin] | inactive: 0.703
C[C@@H]1[C@H](O)[C@@H](C)/C=C/C=C/C=C/C=C/C=C/C=C/C=C/[C@H](O[C@@H]2O[C@H](C)[C@@H](O)[C@H](N)[C@@H]2O)C[C@@H]2O[C@](O)(C[C@@H](O)C[C@@H](O)[C@H](O)CC[C@@H](O)C[C@@H](O)CC(=O)O[C@H]1C)C[C@H](O)[C@H]2C(=O)O [Amphotericin B] + CCC(C)CCCC(=O)N[C@@H](CCN)C(=O)N[C@H](C(=O)N[C@@H](CCN)C(=O)N[C@H]1CCNC(=O)[C@H]([C@@H](C)O)NC(=O)[C@H](CCN)NC(=O)[C@H](CCN)NC(=O)[C@H](CC(C)C)NC(=O)[C@@H](CC(C)C)NC(=O)[C@H](CCN)NC1=O)[C@@H](C)O [colistin] | inactive: 1.1
NC(=N\CCCCCC/N=C(N)/N=C(\N)Nc1ccc(Cl)cc1)/N=C(\N)Nc1ccc(Cl)cc1 [Chlorhexidine diacetate] + CCC(C)CCCC(=O)N[C@@H](CCN)C(=O)N[C@H](C(=O)N[C@@H](CCN)C(=O)N[C@H]1CCNC(=O)[C@H]([C@@H](C)O)NC(=O)[C@H](CCN)NC(=O)[C@H](CCN)NC(=O)[C@H](CC(C)C)NC(=O)[C@@H](CC(C)C)NC(=O)[C@H](CCN)NC1=O)[C@@H](C)O [colistin] | active: 0.036
CN(C)CC/C=C1/c2ccccc2Sc2ccc(Cl)cc21 [Chlorprothixene] + CCC(C)CCCC(=O)N[C@@H](CCN)C(=O)N[C@H](C(=O)N[C@@H](CCN)C(=O)N[C@H]1CCNC(=O)[C@H]([C@@H](C)O)NC(=O)[C@H](CCN)NC(=O)[C@H](CCN)NC(=O)[C@H](CC(C)C)NC(=O)[C@@H](CC(C)C)NC(=O)[C@H](CCN)NC1=O)[C@@H](C)O [colistin] | inactive: 0.973
Cc1ccc(C)c(OCCCC(C)(C)C(=O)O)c1 [Gemfibrozil] + CCC(C)CCCC(=O)N[C@@H](CCN)C(=O)N[C@H](C(=O)N[C@@H](CCN)C(=O)N[C@H]1CCNC(=O)[C@H]([C@@H](C)O)NC(=O)[C@H](CCN)NC(=O)[C@H](CCN)NC(=O)[C@H](CC(C)C)NC(=O)[C@@H](CC(C)C)NC(=O)[C@H](CCN)NC1=O)[C@@H](C)O [colistin] | inactive: 0.856
CC(C)(C)NCC(O)COc1cccc2c1CCC(=O)N2 (configuration not stated) [Carteolol hydrochloride] + CCC(C)CCCC(=O)N[C@@H](CCN)C(=O)N[C@H](C(=O)N[C@@H](CCN)C(=O)N[C@H]1CCNC(=O)[C@H]([C@@H](C)O)NC(=O)[C@H](CCN)NC(=O)[C@H](CCN)NC(=O)[C@H](CC(C)C)NC(=O)[C@@H](CC(C)C)NC(=O)[C@H](CCN)NC1=O)[C@@H](C)O [colistin] | inactive: 1.15
O=C1c2cccc3c2[C@H](CCC3)CN1[C@@H]1CN2CCC1CC2 [Palonosetron hydrochloride] + CCC(C)CCCC(=O)N[C@@H](CCN)C(=O)N[C@H](C(=O)N[C@@H](CCN)C(=O)N[C@H]1CCNC(=O)[C@H]([C@@H](C)O)NC(=O)[C@H](CCN)NC(=O)[C@H](CCN)NC(=O)[C@H](CC(C)C)NC(=O)[C@@H](CC(C)C)NC(=O)[C@H](CCN)NC1=O)[C@@H](C)O [colistin] | inactive: 1.07
CCCCc1nc(Cl)c(CO)n1Cc1ccc(-c2ccccc2-c2nnn[nH]2)cc1 [Losartan] + CCC(C)CCCC(=O)N[C@@H](CCN)C(=O)N[C@H](C(=O)N[C@@H](CCN)C(=O)N[C@H]1CCNC(=O)[C@H]([C@@H](C)O)NC(=O)[C@H](CCN)NC(=O)[C@H](CCN)NC(=O)[C@H](CC(C)C)NC(=O)[C@@H](CC(C)C)NC(=O)[C@H](CCN)NC1=O)[C@@H](C)O [colistin] | inactive: 0.854
CCCCNC(=O)NS(=O)(=O)c1ccc(C)cc1 [Tolbutamide] + CCC(C)CCCC(=O)N[C@@H](CCN)C(=O)N[C@H](C(=O)N[C@@H](CCN)C(=O)N[C@H]1CCNC(=O)[C@H]([C@@H](C)O)NC(=O)[C@H](CCN)NC(=O)[C@H](CCN)NC(=O)[C@H](CC(C)C)NC(=O)[C@@H](CC(C)C)NC(=O)[C@H](CCN)NC1=O)[C@@H](C)O [colistin] | inactive: 1.16

No new results follow: an excerpt of the list.
SMILES | OD600
NC(=N\CCCCCC/N=C(N)/N=C(\N)Nc1ccc(Cl)cc1)/N=C(\N)Nc1ccc(Cl)cc1 [Chlorhexidine diacetate] + CCC(C)CCCC(=O)N[C@@H](CCN)C(=O)N[C@H](C(=O)N[C@@H](CCN)C(=O)N[C@H]1CCNC(=O)[C@H]([C@@H](C)O)NC(=O)[C@H](CCN)NC(=O)[C@H](CCN)NC(=O)[C@H](CC(C)C)NC(=O)[C@@H](CC(C)C)NC(=O)[C@H](CCN)NC1=O)[C@@H](C)O [colistin] | active: 0.036
CN(C)CC/C=C1/c2ccccc2Sc2ccc(Cl)cc21 [Chlorprothixene] + CCC(C)CCCC(=O)N[C@@H](CCN)C(=O)N[C@H](C(=O)N[C@@H](CCN)C(=O)N[C@H]1CCNC(=O)[C@H]([C@@H](C)O)NC(=O)[C@H](CCN)NC(=O)[C@H](CCN)NC(=O)[C@H](CC(C)C)NC(=O)[C@@H](CC(C)C)NC(=O)[C@H](CCN)NC1=O)[C@@H](C)O [colistin] | inactive: 0.973
